Results deposited as PubChem BioAssay AID1224828 (NIAID, 2016).
Test: 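Knock-downs that increase or decrease LPS-induced p65 nuclear translocation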 (primary screen). Cells: mouse RAW264.7 G9 macrophage reporter cells (GFP-p65, Tnf promoter-mCherry). Reagent: siRNA pool against mouse genes, 100 nM. Timing: 2 days siRNA transfection, then 40 min LPS before fixation. Treatment: LPS (Salmonella minnesota R595) at 10 ng/ml. Measurement: 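Imaged p65 nuclear translocation ratio, normalised to the plate median, converted to robust z-scores and averaged across two replicates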. Reading the numbers: p65 translocation robust z-score: higher = more nuclear NF-kappaB p65 after LPS than the plate median; nuclear/cytoplasmic p65 ratio: higher = more nuclear NF-kappaB p65. Hit rule: 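Active if robust z is above 3.3 (negative regulators) or below -1.56, the Tlr4 control median (positive regulators); activity score 50 or more; control wells not called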. Meaning of the calls: active = hit (p65 shift raised or lowered); inactive = no clear change.
The whole screen tested about 17,000 reagents; shown is a part drawn at random. Over the whole deposit, 762 (4.5%) got an active call. 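Active calls include both raised and lowered p65 entry, mostly lowered; wells with fewer than 50 cells lack a z-score.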 The raw values are shown without normalisation. The numbers tell different reagents against one gene apart.

Target gene,reagent,p65 translocation robust z-score,"nuclear/cytoplasmic p65 ratio, rep 1","nuclear/cytoplasmic p65 ratio, rep 2",low cell count flag,Call
Stk31 (serine threonine kinase 31),1,1.36,1.89,1.57,enough cells to score,inactive
Golt1b (golgi transport 1B),1,-0.42,1.3,1.83,enough cells to score,inactive
"Cripto (cripto, EGF-CFC family member)",1,0.62,1.69,1.52,enough cells to score,inactive
Rubcn,1,-0.1,1.37,1.41,enough cells to score,inactive
Or5w20 (olfactory receptor family 5 subfamily W member 20),1,-2.39,1.35,1.17,enough cells to score,active
"Akr1c18 (aldo-keto reductase family 1, member C18)",1,,1.76,1.91,fewer than 50 cells per well; well left out of scoring,inactive
Tg (thyroglobulin),1,-0.28,1.55,1.42,enough cells to score,inactive
Chrdl2 (chordin-like 2),1,0.52,1.65,1.89,enough cells to score,inactive
Cdca3 (cell division cycle associated 3),1,-0.52,1.56,1.65,enough cells to score,inactive
Myo1h (myosin 1H),1,-0.22,1.71,1.59,enough cells to score,inactive
Igbp1 (immunoglobulin (CD79A) binding protein 1),1,-0.26,1.38,1.37,enough cells to score,inactive
Cep164 (centrosomal protein 164),1,-0.72,1.41,1.72,enough cells to score,inactive
Cep164 (centrosomal protein 164),2,-0.14,1.51,1.81,enough cells to score,inactive
Rbm11 (RNA binding motif protein 11),1,0.28,1.57,1.49,enough cells to score,inactive
Tor1aip2 (torsin A interacting protein 2),1,-1.28,1.36,1.32,enough cells to score,inactive
Tor1aip2 (torsin A interacting protein 2),2,0.8,1.62,1.49,enough cells to score,inactive
Mllt11,1,1.43,1.73,1.94,enough cells to score,inactive
"Gja1 (gap junction protein, alpha 1)",1,0.31,1.48,1.41,enough cells to score,inactive
Gsdmc2 (gasdermin C2),1,-0.56,1.35,1.62,enough cells to score,inactive
Or1o3 (olfactory receptor family 1 subfamily O member 3),1,0.24,1.44,1.3,enough cells to score,inactive
Hdac9 (histone deacetylase 9),1,-0.68,1.36,1.31,enough cells to score,inactive
Hdac9 (histone deacetylase 9),2,-1.43,1.42,1.35,enough cells to score,inactive
Vmn1r4 (vomeronasal 1 receptor 4),1,0.21,1.47,1.2,enough cells to score,inactive
Map3k2 (mitogen-activated protein kinase kinase kinase 2),1,,1.67,1.42,fewer than 50 cells per well; well left out of scoring,inactive

Records listed so far whose target name starts with R or r:
Target gene,reagent,p65 translocation robust z-score,"nuclear/cytoplasmic p65 ratio, rep 1","nuclear/cytoplasmic p65 ratio, rep 2",low cell count flag,Call
Rubcn,1,-0.1,1.37,1.41,enough cells to score,inactive
Rbm11 (RNA binding motif protein 11),1,0.28,1.57,1.49,enough cells to score,inactive
